In patent publication US20240200044:

Biological target: CBX8-directed TALE-omega K59E (synthetic construct) (UniProt Q56830)
Assay: one hybrid
Details: little effect versus canonical; protein in cells; protein details: N-terminal FLAG-NLS, C-terminal RNAP omega; variant of CBX8 5'T site

Sequence	binding result
ATCAGGAGGGCTTCGGC (double strand) [CBX8 5'A site]	binds
CTCAGGAGGGCTTCGGC (double strand) [CBX8 5'C site]	binds
GTCAGGAGGGCTTCGGC (double strand) [CBX8 5'G site]	binds

At least one result comes from cells or an extract, where the contact may be indirect.
